Article PMC11461180, “Interaction with IP6K1 supports pyrophosphorylation of substrate proteins by the inositol pyrophosphate 5-InsP7” (Bioscience Reports, 2024)
Results are given in words; binding and its absence hold for the method and conditions named. Binding seen in cells or lysates may run through a third protein. Some binding calls cover weakened binding; strength is not graded here. Tags and fused reporters may be left off the sequences shown. One block for each binder: values may come before it.

Chains of the proteins cited; added tags and fusions are not shown. Lines headed by an entry give the natural chain unless they say otherwise; changes in a name come on top.
UniProt Q92551: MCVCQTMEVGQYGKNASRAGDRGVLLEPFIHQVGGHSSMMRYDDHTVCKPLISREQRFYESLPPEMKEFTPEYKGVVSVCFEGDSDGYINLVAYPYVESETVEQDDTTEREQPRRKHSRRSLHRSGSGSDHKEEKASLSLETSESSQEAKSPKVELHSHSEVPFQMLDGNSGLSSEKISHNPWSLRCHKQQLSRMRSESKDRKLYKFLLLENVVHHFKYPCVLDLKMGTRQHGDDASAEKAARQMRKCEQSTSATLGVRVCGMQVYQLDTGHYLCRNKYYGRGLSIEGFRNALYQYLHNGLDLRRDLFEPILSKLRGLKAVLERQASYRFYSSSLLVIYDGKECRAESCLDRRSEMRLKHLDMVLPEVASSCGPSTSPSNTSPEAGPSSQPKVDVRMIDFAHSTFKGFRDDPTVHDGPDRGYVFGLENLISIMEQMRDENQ

Tests used:
[1] = target: SFB-tagged IP6K1 (full length) (human) (UniProt Q92551); experiment: pull-down; SFB-tagged bait expressed in HEK293T (HEK293) cells, pulled down from the lysate with streptavidin-sepharose beads, 2 h at 4°C (50 mM HEPES pH 7.4, 100 mM NaCl, 1 mM EDTA, 0.5% Nonidet P-40); prey endogenous or co-expressed, detected by immunoblotting
HA-tagged CK2α (human) = HA-tagged CK2α (human) (UniProt P68400); experiment: co-IP; N-terminally HA-tagged CK2α co-expressed with myc-AP3B1 and/or IP6K1-V5 in HEK293T; lysate immunoprecipitated with an anti-HA antibody; immunoblotting for V5 or myc
[2] = target: T1, HA-tagged CK2α (K68M), catalytically inactive (human) (UniProt P68400); experiment: as above
T1 sequence: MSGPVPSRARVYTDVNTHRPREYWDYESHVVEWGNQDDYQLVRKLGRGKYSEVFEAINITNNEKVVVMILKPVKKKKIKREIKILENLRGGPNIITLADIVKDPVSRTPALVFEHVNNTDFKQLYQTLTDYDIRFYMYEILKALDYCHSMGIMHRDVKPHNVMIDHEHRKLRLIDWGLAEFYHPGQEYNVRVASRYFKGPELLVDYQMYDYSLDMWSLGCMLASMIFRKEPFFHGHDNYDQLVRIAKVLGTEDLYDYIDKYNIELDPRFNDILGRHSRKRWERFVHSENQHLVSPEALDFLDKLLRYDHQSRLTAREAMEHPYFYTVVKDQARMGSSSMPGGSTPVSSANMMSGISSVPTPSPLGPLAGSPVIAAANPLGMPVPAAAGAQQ

V5-tagged IP6K1 (human) [3] = target: V5-tagged IP6K1 (human) (UniProt Q92551); experiment: co-IP; competition in cells: IP6K1-V5 and myc-AP3B1 co-expressed in HEK293T in the absence or presence of SFB-tagged IDR-1; anti-V5 immunoprecipitation, immunoblot for myc, densitometry (N=3)
[4] = target: GST-tagged recombinant IP6K1 (human) (UniProt Q92551); experiment: pull-down; GST-tagged IP6K1 or CK2α purified from E. coli and immobilized on glutathione-sepharose beads, incubated with lysates of transfected HEK293T cells in 50 mM HEPES-KOH pH 7.4, 100 mM NaCl, 5 mM MgCl2, 0.3% Triton X-100, 2 h at 4°C; immunoblotting; only the target purified
[5] = target: GST-tagged recombinant CK2α (human) (UniProt P68400); experiment: as above
[6] = target: catalytically inactive IP6K1 (K226A), V5-tagged (human) (UniProt Q92551); experiment: co-IP; C-terminally V5-tagged IP6K1 co-expressed with tagged partners in HEK293T; lysate immunoprecipitated with an anti-V5 antibody overnight at 4°C, Protein A or G-sepharose; immunoblotting for myc or HA
V5-tagged IP6K1 (human) [7] = target: V5-tagged IP6K1 (human) (UniProt Q92551); experiment: as above

binding [1]: binds
B1: endogenous NOLC1 (protein, UniProt Q14978 1-699)
chain: MADAGIRRVVPSDLYPLVLGFLRDNQLSEVANKFAKATGATQQDANASSLLDIYSFWLKSAKVPERKLQANGPVAKKAKKKASSSDSEDSSEEEEEVQGPPAKKAAVPAKRVGLPPGKAAAKASESSSSEESSDDDDEEDQKKQPVQKGVKPQAKAAKAPPKKAKSSDSDSDSSSEDEPPKNQKPKITPVTVKAQTKAPPKPARAAPKIANGKAASSSSSSSSSSSSDDSEEEKAAATPKKTVPKKQVVAKAPVKAATTPTRKSSSSEDSSSDEEEEQKKPMKNKPGPYSSVPPPSAPPPKKSLGTQPPKKAVEKQQPVESSEDSSDESDSSSEEEKKPPTKAVVSKATTKPPPAKKAAESSSDSSDSDSSEDDEAPSKPAGTTKNSSNKPAVTTKSPAVKPAAAPKQPVGGGQKLLTRKADSSSSEEESSSSEEEKTKKMVATTKPKATAKAALSLPAKQAPQGSRDSSSDSDSSSSEEEEEKTSKSAVKKKPQKVAGGAAPSKPASAKKGKAESSNSSSSDDSSEEEEEKLKGKGSPRPQAPKANGTSALTAQNGKAAKNSEEEEEEKKKAAVVVSKSGSLKKRKQNEAAKEAETPQAKKIKLQTPNTFPKRKKGEKRASSPFRRVREEEIEVDSRVADNSFDAKRGAAGDWGERANQVLKFTKGKSFRHEKTKKKRGSYRGGSISVQVNSIKFDSE

binding [1]: binds
B2: endogenous TCOF (protein, UniProt Q13428 1-1488)
chain: MAEARKRRELLPLIYHHLLRAGYVRAAREVKEQSGQKCFLAQPVTLLDIYTHWQQTSELGRKRKAEEDAALQAKKTRVSDPISTSESSEEEEEAEAETAKATPRLASTNSSVLGADLPSSMKEKAKAETEKAGKTGNSMPHPATGKTVANLLSGKSPRKSAEPSANTTLVSETEEEGSVPAFGAAAKPGMVSAGQADSSSEDTSSSSDETDVEGKPSVKPAQVKASSVSTKESPARKAAPAPGKVGDVTPQVKGGALPPAKRAKKPEEESESSEEGSESEEEAPAGTRSQVKASEKILQVRAASAPAKGTPGKGATPAPPGKAGAVASQTKAGKPEEDSESSSEESSDSEEETPAAKALLQAKASGKTSQVGAASAPAKESPRKGAAPAPPGKTGPAVAKAQAGKREEDSQSSSEESDSEEEAPAQAKPSGKAPQVRAASAPAKESPRKGAAPAPPRKTGPAAAQVQVGKQEEDSRSSSEESDSDREALAAMNAAQVKPLGKSPQVKPASTMGMGPLGKGAGPVPPGKVGPATPSAQVGKWEEDSESSSEESSDSSDGEVPTAVAPAQEKSLGNILQAKPTSSPAKGPPQKAGPVAVQVKAEKPMDNSESSEESSDSADSEEAPAAMTAAQAKPALKIPQTKACPKKTNTTASAKVAPVRVGTQAPRKAGTATSPAGSSPAVAGGTQRPAEDSSSSEESDSEEEKTGLAVTVGQAKSVGKGLQVKAASVPVKGSLGQGTAPVLPGKTGPTVTQVKAEKQEDSESSEEESDSEEAAASPAQVKTSVKKTQAKANPAAARAPSAKGTISAPGKVVTAAAQAKQRSPSKVKPPVRNPQNSTVLARGPASVPSVGKAVATAAQAQTGPEEDSGSSEEESDSEEEAETLAQVKPSGKTHQIRAALAPAKESPRKGAAPTPPGKTGPSAAQAGKQDDSGSSSEESDSDGEAPAAVTSAQVIKPPLIFVDPNRSPAGPAATPAQAQAASTPRKARASESTARSSSSESEDEDVIPATQCLTPGIRTNVVTMPTAHPRIAPKASMAGASSSKESSRISDGKKQEGPATQVSKKNPASLPLTQAALKVLAQKASEAQPPVARTQPSSGVDSAVGTLPATSPQSTSVQAKGTNKLRKPKLPEVQQATKAPESSDDSEDSSDSSSGSEEDGEGPQGAKSAHTLGPTPSRTETLVEETAAESSEDDVVAPSQSLLSGYMTPGLTPANSQASKATPKLDSSPSVSSTLAAKDDPDGKQEAKPQQAAGMLSPKTGGKEAASGTTPQKSRKPKKGAGNPQASTLALQSNITQCLLGQPWPLNEAQVQASVVKVLTELLEQERKKVVDTTKESSRKGWESRKRKLSGDQPAARTPRSKKKKKLGAGEGGEASVSPEKTSTTSKGKAKRDKASGDVKEKKGKGSLGSQGAKDEPEEELQKGMGTVEGGDQSNPKSKKEKKKSDKRKKDKEKKEKKKKAKKASTKDSESPSQKKKKKKKKTAEQTV

binding [1]: binds
B3: endogenous AP3B1, the β subunit of the AP3 adaptor protein complex (protein, UniProt O00203 1-1094)
chain: MSSNSFPYNEQSGGGEATELGQEATSTISPSGAFGLFSSDLKKNEDLKQMLESNKDSAKLDAMKRIVGMIAKGKNASELFPAVVKNVASKNIEIKKLVYVYLVRYAEEQQDLALLSISTFQRALKDPNQLIRASALRVLSSIRVPIIVPIMMLAIKEASADLSPYVRKNAAHAIQKLYSLDPEQKEMLIEVIEKLLKDKSTLVAGSVVMAFEEVCPDRIDLIHKNYRKLCNLLVDVEEWGQVVIIHMLTRYARTQFVSPWKEGDELEDNGKNFYESDDDQKEKTDKKKKPYTMDPDHRLLIRNTKPLLQSRNAAVVMAVAQLYWHISPKSEAGIISKSLVRLLRSNREVQYIVLQNIATMSIQRKGMFEPYLKSFYVRSTDPTMIKTLKLEILTNLANEANISTLLREFQTYVKSQDKQFAAATIQTIGRCATNILEVTDTCLNGLVCLLSNRDEIVVAESVVVIKKLLQMQPAQHGEIIKHMAKLLDSITVPVARASILWLIGENCERVPKIAPDVLRKMAKSFTSEDDLVKLQILNLGAKLYLTNSKQTKLLTQYILNLGKYDQNYDIRDRTRFIRQLIVPNVKSGALSKYAKKIFLAQKPAPLLESPFKDRDHFQLGTLSHTLNIKATGYLELSNWPEVAPDPSVRNVEVIELAKEWTPAGKAKQENSAKKFYSESEEEEDSSDSSSDSESESGSESGEQGESGEEGDSNEDSSEDSSSEQDSESGRESGLENKRTAKRNSKAKGKSDSEDGEKENEKSKTSDSSNDESSSIEDSSSDSESESEPESESESRRVTKEKEKKTKQDRTPLTKDVSLLDLDDFNPVSTPVALPTPALSPSLMADLEGLHLSTSSSVISVSTPAFVPTKTHVLLHRMSGKGLAAHYFFPRQPCIFGDKMVSIQITLNNTTDRKIENIHIGEKKLPIGMKMHVFNPIDSLEPEGSITVSMGIDFCDSTQTASFQLCTKDDCFNVNIQPPVGELLLPVAMSEKDFKKEQGVLTGMNETSAVIIAAPQNFTPSVIFQKVVNVANVGAVPSGQDNIHRFAAKTVHSGSLMLVTVELKEGSTAQLIINTEKTVIGSVLLRELKPVLSQG

binding [1]: binds
binding (HA-tagged CK2α (human)): binds
binding [2]: binds
binding (V5-tagged IP6K1 (human) [3]): binds
binding [4]: binds
binding [5]: binds
binding [6]: binds
binding (V5-tagged IP6K1 (human) [7]): binds
B4: myc epitope-tagged AP3B1 (protein, UniProt O00203-1 1-1094)
chain: B3 chain
